Laboratory results as given in the supplement of paper PMC12823440, “Inhibitors supercharge kinase turnover through native proteolytic circuits” (Nature, 2025).
Structures can show the parent of a compound that is named as a salt. This is one part of the list. Hit calls seldom repeat between salt and free forms of one compound.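 Kinases, fused to nanoluciferase, were expressed in K562 cells; luminescence was measured every 4 h from 2 to 18 h as percent of control (DMSO = 100%, positive control = 0%). A time point is decreased if signal falls significantly (2 sigma). Hits were called by the authors by a rule that is not shown; the count of time points alone does not decide it.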

By UniProt entry, the sequences of proteins in these tests, tags left out. Where a name states a change or a piece, a line headed by the entry shows the natural chain unless it says otherwise.
UniProt Q9Y616: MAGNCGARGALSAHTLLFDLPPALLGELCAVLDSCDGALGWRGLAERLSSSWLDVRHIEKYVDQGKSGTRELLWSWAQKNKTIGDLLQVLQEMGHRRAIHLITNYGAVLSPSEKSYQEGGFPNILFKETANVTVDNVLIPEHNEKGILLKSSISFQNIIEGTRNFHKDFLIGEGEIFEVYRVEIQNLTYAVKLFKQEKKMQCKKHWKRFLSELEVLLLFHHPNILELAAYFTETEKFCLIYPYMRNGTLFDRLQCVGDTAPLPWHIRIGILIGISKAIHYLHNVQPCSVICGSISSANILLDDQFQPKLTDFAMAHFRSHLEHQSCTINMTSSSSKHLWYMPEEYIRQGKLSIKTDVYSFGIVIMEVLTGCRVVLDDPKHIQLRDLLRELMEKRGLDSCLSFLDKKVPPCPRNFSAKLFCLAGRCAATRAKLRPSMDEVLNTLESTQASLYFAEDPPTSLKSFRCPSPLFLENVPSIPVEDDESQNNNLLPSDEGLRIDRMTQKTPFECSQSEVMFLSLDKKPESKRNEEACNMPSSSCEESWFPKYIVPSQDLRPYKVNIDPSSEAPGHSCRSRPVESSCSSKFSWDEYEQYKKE
UniProt P23458: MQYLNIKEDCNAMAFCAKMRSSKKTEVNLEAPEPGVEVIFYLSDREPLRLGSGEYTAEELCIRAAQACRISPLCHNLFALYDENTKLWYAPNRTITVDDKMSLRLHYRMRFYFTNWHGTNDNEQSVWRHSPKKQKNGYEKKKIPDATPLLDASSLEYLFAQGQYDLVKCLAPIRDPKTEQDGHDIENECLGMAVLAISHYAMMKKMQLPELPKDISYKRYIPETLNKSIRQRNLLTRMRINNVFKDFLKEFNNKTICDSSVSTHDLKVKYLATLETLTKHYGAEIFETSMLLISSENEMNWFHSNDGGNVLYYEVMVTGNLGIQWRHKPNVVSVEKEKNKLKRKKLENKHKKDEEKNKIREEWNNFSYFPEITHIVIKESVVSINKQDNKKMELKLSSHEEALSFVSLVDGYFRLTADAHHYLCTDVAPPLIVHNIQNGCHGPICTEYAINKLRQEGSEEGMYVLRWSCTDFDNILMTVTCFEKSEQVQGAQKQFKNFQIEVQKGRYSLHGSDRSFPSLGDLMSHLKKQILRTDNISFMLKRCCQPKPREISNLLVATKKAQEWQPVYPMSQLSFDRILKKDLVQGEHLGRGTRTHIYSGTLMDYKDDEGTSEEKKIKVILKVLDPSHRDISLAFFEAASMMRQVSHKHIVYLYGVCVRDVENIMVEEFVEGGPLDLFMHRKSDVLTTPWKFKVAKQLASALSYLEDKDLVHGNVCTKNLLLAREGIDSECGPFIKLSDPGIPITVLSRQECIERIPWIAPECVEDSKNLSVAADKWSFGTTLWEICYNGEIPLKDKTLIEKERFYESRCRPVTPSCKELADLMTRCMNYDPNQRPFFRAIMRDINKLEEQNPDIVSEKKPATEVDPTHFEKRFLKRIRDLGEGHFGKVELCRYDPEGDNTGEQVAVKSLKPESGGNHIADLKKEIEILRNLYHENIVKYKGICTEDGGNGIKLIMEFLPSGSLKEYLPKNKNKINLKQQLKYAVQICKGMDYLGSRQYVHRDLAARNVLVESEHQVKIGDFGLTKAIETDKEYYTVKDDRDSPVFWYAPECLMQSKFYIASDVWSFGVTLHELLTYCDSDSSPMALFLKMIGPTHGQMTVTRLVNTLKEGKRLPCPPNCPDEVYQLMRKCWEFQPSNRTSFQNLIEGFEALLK
UniProt P06239: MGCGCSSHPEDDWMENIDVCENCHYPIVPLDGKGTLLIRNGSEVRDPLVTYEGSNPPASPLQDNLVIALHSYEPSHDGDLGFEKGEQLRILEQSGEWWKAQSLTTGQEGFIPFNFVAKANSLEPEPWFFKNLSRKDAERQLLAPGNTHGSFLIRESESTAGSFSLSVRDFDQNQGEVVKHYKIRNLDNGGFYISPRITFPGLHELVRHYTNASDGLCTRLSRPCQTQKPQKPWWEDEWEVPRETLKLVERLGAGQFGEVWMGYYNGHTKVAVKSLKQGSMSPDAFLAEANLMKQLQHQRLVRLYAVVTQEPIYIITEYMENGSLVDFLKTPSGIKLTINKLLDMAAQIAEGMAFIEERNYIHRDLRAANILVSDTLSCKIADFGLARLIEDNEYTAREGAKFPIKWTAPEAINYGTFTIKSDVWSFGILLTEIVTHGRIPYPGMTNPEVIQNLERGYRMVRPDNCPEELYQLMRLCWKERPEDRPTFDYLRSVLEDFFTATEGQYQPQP
UniProt P53667: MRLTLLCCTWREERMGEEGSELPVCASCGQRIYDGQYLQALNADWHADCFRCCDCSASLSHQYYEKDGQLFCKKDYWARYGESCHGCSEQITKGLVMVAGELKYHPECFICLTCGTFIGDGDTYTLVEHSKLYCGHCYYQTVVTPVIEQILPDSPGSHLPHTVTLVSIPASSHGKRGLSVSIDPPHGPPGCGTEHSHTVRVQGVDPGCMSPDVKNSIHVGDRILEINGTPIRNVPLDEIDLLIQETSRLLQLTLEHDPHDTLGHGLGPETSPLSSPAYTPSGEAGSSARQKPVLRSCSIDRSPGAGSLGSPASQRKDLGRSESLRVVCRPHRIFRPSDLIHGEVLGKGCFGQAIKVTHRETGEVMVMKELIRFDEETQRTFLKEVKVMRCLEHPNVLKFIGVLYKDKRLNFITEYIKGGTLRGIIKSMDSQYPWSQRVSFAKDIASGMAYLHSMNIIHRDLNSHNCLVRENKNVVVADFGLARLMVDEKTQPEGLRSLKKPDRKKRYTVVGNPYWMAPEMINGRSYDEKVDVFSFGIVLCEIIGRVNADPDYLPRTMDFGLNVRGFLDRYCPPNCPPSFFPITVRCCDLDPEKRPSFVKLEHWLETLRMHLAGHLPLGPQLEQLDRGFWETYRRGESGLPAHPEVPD
UniProt P53671: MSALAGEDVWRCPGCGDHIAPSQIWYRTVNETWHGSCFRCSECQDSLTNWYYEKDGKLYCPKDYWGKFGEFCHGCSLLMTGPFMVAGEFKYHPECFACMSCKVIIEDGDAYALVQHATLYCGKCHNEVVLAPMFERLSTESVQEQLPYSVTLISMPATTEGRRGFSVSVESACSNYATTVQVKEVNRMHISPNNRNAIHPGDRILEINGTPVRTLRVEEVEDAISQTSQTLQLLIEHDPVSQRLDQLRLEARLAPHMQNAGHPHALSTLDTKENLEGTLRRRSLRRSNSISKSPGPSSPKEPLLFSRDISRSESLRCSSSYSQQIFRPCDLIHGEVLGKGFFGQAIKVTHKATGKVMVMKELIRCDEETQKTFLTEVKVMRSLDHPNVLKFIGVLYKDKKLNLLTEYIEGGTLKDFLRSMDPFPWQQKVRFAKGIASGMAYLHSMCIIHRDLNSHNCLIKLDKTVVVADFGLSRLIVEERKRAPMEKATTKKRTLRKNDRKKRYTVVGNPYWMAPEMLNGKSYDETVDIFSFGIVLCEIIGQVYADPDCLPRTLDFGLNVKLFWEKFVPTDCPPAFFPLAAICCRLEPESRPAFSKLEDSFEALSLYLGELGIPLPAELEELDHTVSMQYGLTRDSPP
UniProt Q8IWU2: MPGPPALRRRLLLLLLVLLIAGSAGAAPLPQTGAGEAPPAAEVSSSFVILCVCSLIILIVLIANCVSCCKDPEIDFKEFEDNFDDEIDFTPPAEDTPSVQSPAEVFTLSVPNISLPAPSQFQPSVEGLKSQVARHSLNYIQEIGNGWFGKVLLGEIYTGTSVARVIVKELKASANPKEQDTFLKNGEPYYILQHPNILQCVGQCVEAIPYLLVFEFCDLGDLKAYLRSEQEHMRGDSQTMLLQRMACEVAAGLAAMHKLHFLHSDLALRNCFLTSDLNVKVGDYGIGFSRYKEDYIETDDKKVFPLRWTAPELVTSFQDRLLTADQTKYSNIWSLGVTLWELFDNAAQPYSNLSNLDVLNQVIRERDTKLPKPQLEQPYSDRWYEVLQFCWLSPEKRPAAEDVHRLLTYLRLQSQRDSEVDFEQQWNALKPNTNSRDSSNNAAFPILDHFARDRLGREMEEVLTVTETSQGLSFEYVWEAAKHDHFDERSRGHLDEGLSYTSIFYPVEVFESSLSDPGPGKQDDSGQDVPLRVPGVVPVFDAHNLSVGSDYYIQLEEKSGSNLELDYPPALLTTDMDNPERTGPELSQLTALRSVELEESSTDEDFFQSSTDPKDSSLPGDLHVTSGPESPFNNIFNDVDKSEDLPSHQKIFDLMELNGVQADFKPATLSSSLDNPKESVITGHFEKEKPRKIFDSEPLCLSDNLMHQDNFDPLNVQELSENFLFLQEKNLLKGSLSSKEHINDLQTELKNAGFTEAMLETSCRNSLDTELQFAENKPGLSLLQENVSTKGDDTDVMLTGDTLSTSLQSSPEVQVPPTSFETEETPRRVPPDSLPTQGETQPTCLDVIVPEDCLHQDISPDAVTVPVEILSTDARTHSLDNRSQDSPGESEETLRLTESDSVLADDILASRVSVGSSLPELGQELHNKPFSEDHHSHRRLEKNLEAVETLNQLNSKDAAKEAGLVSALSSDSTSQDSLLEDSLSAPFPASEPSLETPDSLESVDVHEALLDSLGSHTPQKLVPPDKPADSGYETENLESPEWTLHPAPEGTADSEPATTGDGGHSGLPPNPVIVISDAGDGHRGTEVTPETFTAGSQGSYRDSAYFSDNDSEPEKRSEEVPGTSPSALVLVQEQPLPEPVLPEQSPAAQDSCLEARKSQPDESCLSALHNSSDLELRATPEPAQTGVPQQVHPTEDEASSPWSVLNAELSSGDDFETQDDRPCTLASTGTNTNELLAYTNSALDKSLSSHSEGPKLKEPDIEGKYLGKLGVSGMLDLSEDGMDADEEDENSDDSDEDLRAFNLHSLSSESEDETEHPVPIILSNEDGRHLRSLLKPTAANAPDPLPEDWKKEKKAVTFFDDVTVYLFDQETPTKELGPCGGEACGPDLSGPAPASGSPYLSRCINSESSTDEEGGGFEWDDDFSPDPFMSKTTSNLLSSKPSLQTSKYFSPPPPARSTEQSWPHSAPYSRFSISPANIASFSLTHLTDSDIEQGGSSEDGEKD
UniProt P07948: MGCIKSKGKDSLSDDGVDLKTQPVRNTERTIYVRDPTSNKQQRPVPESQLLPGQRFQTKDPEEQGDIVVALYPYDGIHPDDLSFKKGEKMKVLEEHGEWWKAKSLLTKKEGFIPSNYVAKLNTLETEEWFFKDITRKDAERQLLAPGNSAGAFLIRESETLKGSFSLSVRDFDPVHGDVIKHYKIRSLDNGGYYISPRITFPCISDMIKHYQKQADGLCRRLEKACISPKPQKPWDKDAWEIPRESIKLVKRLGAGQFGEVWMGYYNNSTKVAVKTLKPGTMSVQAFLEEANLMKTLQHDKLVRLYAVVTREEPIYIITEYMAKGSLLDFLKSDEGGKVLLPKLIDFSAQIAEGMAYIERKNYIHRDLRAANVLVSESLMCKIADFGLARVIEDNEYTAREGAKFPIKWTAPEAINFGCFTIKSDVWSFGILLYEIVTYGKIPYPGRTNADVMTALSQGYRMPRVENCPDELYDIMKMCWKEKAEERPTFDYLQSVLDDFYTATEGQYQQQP
UniProt Q12851: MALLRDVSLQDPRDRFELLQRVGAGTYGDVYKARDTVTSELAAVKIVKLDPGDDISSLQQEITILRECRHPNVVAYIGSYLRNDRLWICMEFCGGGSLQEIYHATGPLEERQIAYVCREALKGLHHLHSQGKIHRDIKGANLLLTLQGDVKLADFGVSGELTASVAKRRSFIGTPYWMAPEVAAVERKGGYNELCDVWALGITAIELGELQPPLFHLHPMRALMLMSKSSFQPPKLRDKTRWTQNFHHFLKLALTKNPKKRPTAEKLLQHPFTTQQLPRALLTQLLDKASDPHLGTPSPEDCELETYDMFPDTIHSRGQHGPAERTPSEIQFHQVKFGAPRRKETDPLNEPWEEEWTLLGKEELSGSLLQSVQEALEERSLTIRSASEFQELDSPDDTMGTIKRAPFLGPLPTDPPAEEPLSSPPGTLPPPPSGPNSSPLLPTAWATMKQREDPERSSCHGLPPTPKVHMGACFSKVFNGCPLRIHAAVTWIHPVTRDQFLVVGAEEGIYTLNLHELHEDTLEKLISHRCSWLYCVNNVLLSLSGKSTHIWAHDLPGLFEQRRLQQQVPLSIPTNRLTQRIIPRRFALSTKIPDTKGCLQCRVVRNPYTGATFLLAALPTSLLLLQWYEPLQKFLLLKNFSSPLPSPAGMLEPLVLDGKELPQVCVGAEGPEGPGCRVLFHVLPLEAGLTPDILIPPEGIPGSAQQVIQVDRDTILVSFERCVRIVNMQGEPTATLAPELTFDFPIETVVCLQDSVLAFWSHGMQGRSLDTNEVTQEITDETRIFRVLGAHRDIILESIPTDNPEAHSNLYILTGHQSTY

Experiments:
Experiment in all cases: kinase-Nluc reporter destabilization hit call (1 = scored as downregulated) (binary); higher = compound decreases kinase abundance
Conditions in all cases: K562, 2-18 h
IRAK3 = IRAK3 (UniProt Q9Y616)
JAK1 = JAK1 (UniProt P23458)
LCK = LCK (UniProt P06239)
LIMK1 = LIMK1 (UniProt P53667)
LIMK2 = LIMK2 (UniProt P53671)
LMTK2 = LMTK2 (UniProt Q8IWU2)
LYN = LYN (UniProt P07948)
MAP2K1 = MAP2K1 (UniProt Q02750)
MAP2K2 = MAP2K2 (UniProt P36507)
MAP4K2 = MAP4K2 (UniProt Q12851)

Measured: kinase-Nluc reporter destabilization hit call

C#Cc1cccc(Nc2ncnc3cc(OCCOC)c(OCCO)cc23)c1 [Desmethyl Erlotinib]
inactive: IRAK3; 10 µM 0 | JAK1; 10 µM 0 | LCK; 10 µM 0 | LIMK1; 10 µM 0 | LIMK2; 10 µM 0 | LMTK2; 10 µM 0 | LYN; 10 µM 0 | MAP2K1; 10 µM 0 | MAP2K2; 10 µM 0 | MAP4K2; 10 µM 0

C=CC(=O)Nc1cc2c(Nc3ccc(F)c(Cl)c3)ncnc2cc1C#CC(C)(C)N1CCN(C)CC1 [AV-412 (free base)]
inactive: IRAK3; 2.5 µM 0 | JAK1; 2.5 µM 0 | LCK; 2.5 µM 0 | LIMK1; 2.5 µM 0 | LIMK2; 2.5 µM 0 | LMTK2; 2.5 µM 0 | LYN; 2.5 µM 0 | MAP2K1; 2.5 µM 0 | MAP2K2; 2.5 µM 0 | MAP4K2; 2.5 µM 0

COc1cc2c(-c3cnn4cc(N5CCC(N6CCN(C)CC6)CC5)cnc34)ccnc2cc1F
inactive: IRAK3; 10 µM 0 | JAK1; 10 µM 0 | LCK; 10 µM 0 | LIMK1; 10 µM 0 | LIMK2; 10 µM 0 | LMTK2; 10 µM 0 | LYN; 10 µM 0 | MAP2K1; 10 µM 0 | MAP2K2; 10 µM 0 | MAP4K2; 10 µM 0

CN(C)C(=O)c1cc2cnc(Nc3ccc(N4CCNCC4)cn3)nc2n1C1CCCC1 [Ribociclib]
inactive: IRAK3; 10 µM 0 | JAK1; 10 µM 0 | LCK; 10 µM 0 | LIMK1; 10 µM 0 | LIMK2; 10 µM 0 | LMTK2; 10 µM 0 | LYN; 10 µM 0 | MAP2K1; 10 µM 0 | MAP2K2; 10 µM 0 | MAP4K2; 10 µM 0

N#CCNC(=O)c1ccc(-c2ccnc(Nc3ccc(N4CCOCC4)cc3)n2)cc1 [Momelotinib sulfate]
inactive: IRAK3; 10 µM 0 | JAK1; 10 µM 0 | LCK; 10 µM 0 | LIMK1; 10 µM 0 | LIMK2; 10 µM 0 | LMTK2; 10 µM 0 | LYN; 10 µM 0 | MAP2K1; 10 µM 0 | MAP2K2; 10 µM 0 | MAP4K2; 10 µM 0

O=C(Nc1cnn2ccc(N3CCC[C@@H]3c3cc(F)ccc3F)nc12)N1CC[C@H](O)C1 [Larotrectinib]
inactive: IRAK3; 10 µM 0 | JAK1; 10 µM 0 | LCK; 10 µM 0 | LIMK1; 10 µM 0 | LIMK2; 10 µM 0 | LMTK2; 10 µM 0 | LYN; 10 µM 0 | MAP2K1; 10 µM 0 | MAP2K2; 10 µM 0 | MAP4K2; 10 µM 0

Cc1cccc(/C=N/Nc2cc(N3CCOCC3)nc(OCCc3ccccn3)n2)c1 [Apilimod (mesylate)]
inactive: IRAK3; 10 µM 0 | JAK1; 10 µM 0 | LCK; 10 µM 0 | LIMK1; 10 µM 0 | LIMK2; 10 µM 0 | LMTK2; 10 µM 0 | LYN; 10 µM 0 | MAP2K1; 10 µM 0 | MAP2K2; 10 µM 0 | MAP4K2; 10 µM 0

N#CC[C@H](C1CCCC1)n1cc(-c2ncnc3[nH]ccc23)cn1 [Ruxolitinib (phosphate)]
inactive: IRAK3; 10 µM 0 | JAK1; 10 µM 0 | LCK; 10 µM 0 | LIMK1; 10 µM 0 | LIMK2; 10 µM 0 | LMTK2; 10 µM 0 | LYN; 10 µM 0 | MAP2K1; 10 µM 0 | MAP2K2; 10 µM 0 | MAP4K2; 10 µM 0

CC(C)NC[C@@H](C(=O)N1CCN(c2ncnc3c2[C@H](C)C[C@H]3O)CC1)c1ccc(Cl)cc1 [Ipatasertib]
inactive: IRAK3; 10 µM 0 | JAK1; 10 µM 0 | LCK; 10 µM 0 | LIMK1; 10 µM 0 | LIMK2; 10 µM 0 | LMTK2; 10 µM 0 | LYN; 10 µM 0 | MAP2K1; 10 µM 0 | MAP2K2; 10 µM 0 | MAP4K2; 10 µM 0

CN1CCCN(C(=O)c2cccc(-c3ccc(/C=C4/C(=O)Nc5ccc(Cl)cc54)o3)c2)CC1 [CX-6258 (hydrochloride)]
inactive: IRAK3; 2.5 µM 0 | JAK1; 2.5 µM 0 | LCK; 2.5 µM 0 | LIMK1; 2.5 µM 0 | LIMK2; 2.5 µM 0 | LMTK2; 2.5 µM 0 | LYN; 2.5 µM 0 | MAP2K1; 2.5 µM 0 | MAP2K2; 2.5 µM 0 | MAP4K2; 2.5 µM 0

Cc1cc(Nc2ncc(Cl)c(Nc3ccccc3S(=O)(=O)C(C)C)n2)c(OC(C)C)cc1C1CCNCC1 [Ceritinib dihydrochloride]
inactive: IRAK3; 2.5 µM 0 | JAK1; 2.5 µM 0 | LCK; 2.5 µM 0 | LIMK1; 2.5 µM 0 | LIMK2; 2.5 µM 0 | LMTK2; 2.5 µM 0 | LYN; 2.5 µM 0 | MAP2K1; 2.5 µM 0 | MAP2K2; 2.5 µM 0 | MAP4K2; 2.5 µM 0

CC(=O)Nc1cccc(-n2c(=O)n(C3CC3)c(=O)c3c(Nc4ccc(I)cc4F)n(C)c(=O)c(C)c32)c1 [Trametinib]
inactive: IRAK3; 10 µM 0 | JAK1; 10 µM 0 | LCK; 10 µM 0 | LIMK1; 10 µM 0 | LIMK2; 10 µM 0 | LMTK2; 10 µM 0 | LYN; 10 µM 0 | MAP2K1; 10 µM 0 | MAP2K2; 10 µM 0 | MAP4K2; 10 µM 0

Taken from the listing (4 entries):
N#CC[C@H](C1CCCC1)n1cc(-c2ncnc3[nH]ccc23)cn1 [Ruxolitinib (phosphate)]
inactive: IRAK3; 10 µM 0 | JAK1; 10 µM 0 | LCK; 10 µM 0 | LIMK1; 10 µM 0 | LIMK2; 10 µM 0 | LMTK2; 10 µM 0 | LYN; 10 µM 0 | MAP2K1; 10 µM 0 | MAP2K2; 10 µM 0 | MAP4K2; 10 µM 0

CC(C)NC[C@@H](C(=O)N1CCN(c2ncnc3c2[C@H](C)C[C@H]3O)CC1)c1ccc(Cl)cc1 [Ipatasertib]
inactive: IRAK3; 10 µM 0 | JAK1; 10 µM 0 | LCK; 10 µM 0 | LIMK1; 10 µM 0 | LIMK2; 10 µM 0 | LMTK2; 10 µM 0 | LYN; 10 µM 0 | MAP2K1; 10 µM 0 | MAP2K2; 10 µM 0 | MAP4K2; 10 µM 0

CN1CCCN(C(=O)c2cccc(-c3ccc(/C=C4/C(=O)Nc5ccc(Cl)cc54)o3)c2)CC1 [CX-6258 (hydrochloride)]
inactive: IRAK3; 2.5 µM 0 | JAK1; 2.5 µM 0 | LCK; 2.5 µM 0 | LIMK1; 2.5 µM 0 | LIMK2; 2.5 µM 0 | LMTK2; 2.5 µM 0 | LYN; 2.5 µM 0 | MAP2K1; 2.5 µM 0 | MAP2K2; 2.5 µM 0 | MAP4K2; 2.5 µM 0

Cc1cc(Nc2ncc(Cl)c(Nc3ccccc3S(=O)(=O)C(C)C)n2)c(OC(C)C)cc1C1CCNCC1 [Ceritinib dihydrochloride]
inactive: IRAK3; 2.5 µM 0 | JAK1; 2.5 µM 0 | LCK; 2.5 µM 0 | LIMK1; 2.5 µM 0 | LIMK2; 2.5 µM 0 | LMTK2; 2.5 µM 0 | LYN; 2.5 µM 0 | MAP2K1; 2.5 µM 0 | MAP2K2; 2.5 µM 0 | MAP4K2; 2.5 µM 0

Remaining list, next part

Cc1cccc(/C=N/Nc2cc(N3CCOCC3)nc(OCCc3ccccn3)n2)c1 [Apilimod]
inactive: IRAK3; 2.5 µM 0 | JAK1; 2.5 µM 0 | LCK; 2.5 µM 0 | LIMK1; 2.5 µM 0 | LIMK2; 2.5 µM 0 | LMTK2; 2.5 µM 0 | LYN; 2.5 µM 0 | MAP2K1; 2.5 µM 0 | MAP2K2; 2.5 µM 0 | MAP4K2; 2.5 µM 0

C=CC(=O)Nc1cc(Nc2nccc(-c3cn(C)c4ccccc34)n2)c(OC)cc1N(C)CCN(C)C [Osimertinib (dimesylate)]
inactive: IRAK3; 2.5 µM 0 | JAK1; 2.5 µM 0 | LCK; 2.5 µM 0 | LIMK1; 2.5 µM 0 | LIMK2; 2.5 µM 0 | LMTK2; 2.5 µM 0 | LYN; 2.5 µM 0 | MAP2K1; 2.5 µM 0 | MAP2K2; 2.5 µM 0 | MAP4K2; 2.5 µM 0

O=C(c1nn(-c2ccc(CN3CCOCC3)cc2)c2c1CS(=O)(=O)c1c(F)cccc1-2)N1CCOCC1
inactive: IRAK3; 10 µM 0 | JAK1; 10 µM 0 | LCK; 10 µM 0 | LIMK1; 10 µM 0 | LIMK2; 10 µM 0 | LMTK2; 10 µM 0 | LYN; 10 µM 0 | MAP2K1; 10 µM 0 | MAP2K2; 10 µM 0 | MAP4K2; 10 µM 0
